# The supplement of paper PMC8728848
# The list shows a part of the results.
# Columns and labels:
# Experiment in all cases: glycan array binding signal (z-score within array); higher = stronger binding
# Details in all cases: glycan notation: IUPAC condensed, linker removed
# Gal(b1-2)Gal = molecular target: Gal(b1-2)Gal
# In short: (§1)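 Glycan array data came from 3228 arrays in the Consortium for Functional Glycomics database, and only arrays with an available protein sequence were kept. Glycan names were put into IUPAC-condensed notation, and columns mapping to the same glycan were averaged. The binding signal is a within-array Z-score, averaged across arrays of one protein sequence run at different concentrations or buffers and across linkers. A negative Z-score can be read as non-binding.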
# Gal(b1-3)Gal = molecular target: Gal(b1-3)Gal
# In short: as §1
# Gal(b1-3)Gal(b1-4)GlcNAc = molecular target: Gal(b1-3)Gal(b1-4)GlcNAc
# In short: as §1
# Gal(b1-3)GalNAc = molecular target: Gal(b1-3)GalNAc
# In short: as §1
# [1] = molecular target: Gal(b1-3)GalNAc(a1-3)[Fuc(a1-2)]Gal(b1-4)Glc
# In short: as §1
# [2] = molecular target: Gal(b1-3)GalNAc(a1-3)[Fuc(a1-2)]Gal(b1-4)GlcNAc
# In short: as §1
# Gal(b1-3)GalNAc(b1-3)Gal = molecular target: Gal(b1-3)GalNAc(b1-3)Gal
# In short: as §1
# [3] = molecular target: Gal(b1-3)GalNAc(b1-3)Gal(a1-4)Gal(b1-4)Glc
# In short: as §1
# [4] = molecular target: Gal(b1-3)GalNAc(b1-4)Gal(b1-4)Glc
# In short: as §1
# [5] = molecular target: Gal(b1-3)GalNAc(b1-4)[Neu5Ac(a2-3)]Gal(b1-4)Glc
# In short: as §1
# Gal(b1-3)GlcNAc = molecular target: Gal(b1-3)GlcNAc
# In short: as §1
# [6] = molecular target: Gal(b1-3)GlcNAc(a1-3)Gal(b1-4)GlcNAc
# In short: as §1
# [7] = molecular target: Gal(b1-3)GlcNAc(a1-6)Gal(b1-4)GlcNAc
# In short: as §1
# Gal(b1-3)GlcNAc(b1-2)Man = molecular target: Gal(b1-3)GlcNAc(b1-2)Man
# In short: as §1
# [8] = molecular target: Gal(b1-3)GlcNAc(b1-2)Man(a1-3)[Gal(b1-3)GlcNAc(b1-2)Man(a1-6)]Man(b1-4)GlcNAc(b1-4)GlcNAc
# In short: as §1
# [9] = molecular target: Gal(b1-3)GlcNAc(b1-2)Man(a1-3)[Gal(b1-3)GlcNAc(b1-2)Man(a1-6)]Man(b1-4)GlcNAc(b1-4)[Fuc(a1-6)]GlcNAc
# In short: as §1
# [10] = molecular target: Gal(b1-3)GlcNAc(b1-2)Man(a1-3)[GlcNAc(b1-4)][Gal(b1-3)GlcNAc(b1-2)Man(a1-6)]Man(b1-4)GlcNAc(b1-4)GlcNAc
# In short: as §1
# [11] = molecular target: Gal(b1-3)GlcNAc(b1-2)[Gal(b1-3)GlcNAc(b1-6)]Man(a1-6)[Gal(b1-3)GlcNAc(b1-2)Man(a1-3)]Man(b1-4)GlcNAc(b1-4)GlcNAc
# In short: as §1
# [12] = molecular target: Gal(b1-3)GlcNAc(b1-3)Gal(b1-3)GlcNAc
# In short: as §1
# [13] = molecular target: Gal(b1-3)GlcNAc(b1-3)Gal(b1-4)Glc
# In short: as §1
# [14] = molecular target: Gal(b1-3)GlcNAc(b1-3)Gal(b1-4)GlcNAc
# In short: as §1
# [15] = molecular target: Gal(b1-3)GlcNAc(b1-3)Gal(b1-4)GlcNAc(b1-2)Man(a1-3)[Gal(b1-3)GlcNAc(b1-3)Gal(b1-4)GlcNAc(b1-2)Man(a1-6)]Man(b1-4)GlcNAc(b1-4)GlcNAc
# In short: as §1
# [16] = molecular target: Gal(b1-3)GlcNAc(b1-3)Gal(b1-4)GlcNAc(b1-2)[Gal(b1-3)GlcNAc(b1-3)Gal(b1-4)GlcNAc(b1-6)]Man(a1-6)[Gal(b1-3)GlcNAc(b1-3)Gal(b1-4)GlcNAc(b1-2)Man(a1-3)]Man(b1-4)GlcNAc(b1-4)[Fuc(a1-6)]GlcNAc
# In short: as §1
# [17] = molecular target: Gal(b1-3)GlcNAc(b1-3)Gal(b1-4)GlcNAc(b1-3)Gal(b1-4)GlcNAc(b1-2)[Gal(b1-3)GlcNAc(b1-3)Gal(b1-4)GlcNAc(b1-3)Gal(b1-4)GlcNAc(b1-6)]Man(a1-6)[Gal(b1-3)GlcNAc(b1-3)Gal(b1-4)GlcNAc(b1-3)Gal(b1-4)GlcNAc(b1-2)Man(a1-3)]Man(b1-4)GlcNAc(b1-4)[Fuc(a1-6)]GlcNAc
# In short: as §1
# [18] = molecular target: Gal(b1-3)GlcNAc(b1-3)Gal(b1-4)GlcNAc(b1-6)[Gal(b1-3)GlcNAc(b1-3)]Gal(b1-4)Glc
# In short: as §1
# [19] = molecular target: Gal(b1-3)GlcNAc(b1-3)Gal(b1-4)[Fuc(a1-3)]GlcNAc
# In short: as §1
# [20] = molecular target: Gal(b1-3)GlcNAc(b1-3)Gal(b1-4)[Fuc(a1-3)]GlcNAc(b1-6)[Gal(b1-3)GlcNAc(b1-3)]Gal(b1-4)Glc
# In short: as §1
# [21] = molecular target: Gal(b1-3)GlcNAc(b1-3)GalNAc
# In short: as §1
# [22] = molecular target: Gal(b1-3)GlcNAc(b1-6)Gal(b1-4)GlcNAc
# In short: as §1
# [23] = molecular target: Gal(b1-3)GlcNAc(b1-6)GalNAc
# In short: as §1
# [24] = molecular target: Gal(b1-3)GlcNAc(b1-6)[Gal(b1-3)]GalNAc
# In short: as §1
# Gal(b1-3)GlcNAc6S = molecular target: Gal(b1-3)GlcNAc6S
# In short: as §1
# [25] = molecular target: Gal(b1-3)[Fuc(a1-4)]GlcNAc
# In short: as §1
# [26] = molecular target: Gal(b1-3)[Fuc(a1-4)]GlcNAc(b1-2)Man
# In short: as §1
# [27] = molecular target: Gal(b1-3)[Fuc(a1-4)]GlcNAc(b1-2)Man(a1-3)[Gal(b1-3)[Fuc(a1-4)]GlcNAc(b1-2)Man(a1-6)]Man(b1-4)GlcNAc(b1-4)[Fuc(a1-6)]GlcNAc
# In short: as §1
# [28] = molecular target: Gal(b1-3)[Fuc(a1-4)]GlcNAc(b1-3)Gal(b1-3)[Fuc(a1-4)]GlcNAc
# In short: as §1
# [29] = molecular target: Gal(b1-3)[Fuc(a1-4)]GlcNAc(b1-3)Gal(b1-4)[Fuc(a1-3)]GlcNAc
# In short: as §1
# [30] = molecular target: Gal(b1-3)[Fuc(a1-4)]GlcNAc(b1-6)GalNAc
# In short: as §1
# [31] = molecular target: Gal(b1-3)[GlcNAc(b1-6)]GalNAc
# In short: as §1
# [32] = molecular target: Gal(b1-3)[Neu5Ac(a2-6)]GalNAc
# In short: as §1
# [33] = molecular target: Gal(b1-3)[Neu5Ac(a2-6)]GlcNAc(b1-4)Gal(b1-4)Glc
# In short: as §1
# [34] = molecular target: Gal(b1-3)[Neu5Ac(b2-6)]GalNAc
# In short: as §1
# Gal(b1-4)Gal = molecular target: Gal(b1-4)Gal
# In short: as §1
# [35] = molecular target: Gal(b1-4)GalNAc(a1-3)[Fuc(a1-2)]Gal(b1-4)GlcNAc
# In short: as §1
# [36] = molecular target: Gal(b1-4)GalNAc(b1-3)[Fuc(a1-2)]Gal(b1-4)GlcNAc
# In short: as §1
binder,measurement,setting,value
PX14375D-bvu-513-34-513 (Bacteroides vulgatus) (protein) TEDTFWKDETDFNLALTSCYTPLKNALNGGYYGTRGVMLRIARADEVDFRNDISDVYTVNRFTNSNTNSLTQGMFYQFYNALYRTNSIMQKLEEKKEQFSTDFQNSVKGECLFIRGFYLFQLAKEFKDAPLRLTASQSPSTFPLAKSSQADIWAQAKEDLKTAASLLPITNKIGKPTQGAAYAALGKIYVYEENWQEAINVLEPLTQNPYTYKLVEDFNWNFDDTHENNAESIFELLIEDVGGTDLWGDGENINSTQSNTRPKEYAAAEVGGWYEANPTQQIMDIFWKEKDKDGNFDYRARCSVAWDYEGCTYYQRPFREVFAQDKWKTYWILKYQNWKTQKDEPAPPKSFINERAIRYADVLLMLAEAYMNKGALDTSIGYINQIRRRANLNDYSGPITKEGVFEDLVHQRAIEFFVEGERFYDLRRWGLLEQTLKTCDDTRYKNYQTGKSDNINKFNYFPIPAKELDTNPLCTPSEGW,glycan array binding signal (z-score),Gal(b1-2)Gal,-0.667
same,glycan array binding signal (z-score),Gal(b1-3)Gal,-0.37
same,glycan array binding signal (z-score),Gal(b1-3)Gal(b1-4)GlcNAc,0.587
same,glycan array binding signal (z-score),Gal(b1-3)GalNAc,0.147
same,glycan array binding signal (z-score),[1],-0.045
same,glycan array binding signal (z-score),[2],-0.122
same,glycan array binding signal (z-score),Gal(b1-3)GalNAc(b1-3)Gal,0.21
same,glycan array binding signal (z-score),[3],0.786
same,glycan array binding signal (z-score),[4],-0.034
same,glycan array binding signal (z-score),[5],-0.955
same,glycan array binding signal (z-score),Gal(b1-3)GlcNAc,0.32
same,glycan array binding signal (z-score),[6],0.548
same,glycan array binding signal (z-score),[7],-1.04
same,glycan array binding signal (z-score),Gal(b1-3)GlcNAc(b1-2)Man,-0.488
same,glycan array binding signal (z-score),[8],0.123
same,glycan array binding signal (z-score),[9],-0.21
same,glycan array binding signal (z-score),[10],-0.759
same,glycan array binding signal (z-score),[11],-0.104
same,glycan array binding signal (z-score),[12],-0.322
same,glycan array binding signal (z-score),[13],-0.666
same,glycan array binding signal (z-score),[14],-0.533
same,glycan array binding signal (z-score),[15],-0.121
same,glycan array binding signal (z-score),[16],0.395
same,glycan array binding signal (z-score),[17],1.07
same,glycan array binding signal (z-score),[18],0.438
same,glycan array binding signal (z-score),[19],-0.353
same,glycan array binding signal (z-score),[20],-0.162
same,glycan array binding signal (z-score),[21],-0.713
same,glycan array binding signal (z-score),[22],-0.337
same,glycan array binding signal (z-score),[23],0.412
same,glycan array binding signal (z-score),[24],-0.157
same,glycan array binding signal (z-score),Gal(b1-3)GlcNAc6S,-0.185
same,glycan array binding signal (z-score),[25],-0.33
same,glycan array binding signal (z-score),[26],0.741
same,glycan array binding signal (z-score),[27],0.796
same,glycan array binding signal (z-score),[28],-0.32
same,glycan array binding signal (z-score),[29],1.36
same,glycan array binding signal (z-score),[30],-0.242
same,glycan array binding signal (z-score),[31],0.895
same,glycan array binding signal (z-score),[32],-0.671
same,glycan array binding signal (z-score),[33],-1.15
same,glycan array binding signal (z-score),[34],0.076
same,glycan array binding signal (z-score),Gal(b1-4)Gal,-0.025
same,glycan array binding signal (z-score),[35],-0.78
same,glycan array binding signal (z-score),[36],-0.803

# Random excerpt: four entries already listed
binder,measurement,setting,value
PX14375D-bvu-513-34-513 (Bacteroides vulgatus) (protein) TEDTFWKDETDFNLALTSCYTPLKNALNGGYYGTRGVMLRIARADEVDFRNDISDVYTVNRFTNSNTNSLTQGMFYQFYNALYRTNSIMQKLEEKKEQFSTDFQNSVKGECLFIRGFYLFQLAKEFKDAPLRLTASQSPSTFPLAKSSQADIWAQAKEDLKTAASLLPITNKIGKPTQGAAYAALGKIYVYEENWQEAINVLEPLTQNPYTYKLVEDFNWNFDDTHENNAESIFELLIEDVGGTDLWGDGENINSTQSNTRPKEYAAAEVGGWYEANPTQQIMDIFWKEKDKDGNFDYRARCSVAWDYEGCTYYQRPFREVFAQDKWKTYWILKYQNWKTQKDEPAPPKSFINERAIRYADVLLMLAEAYMNKGALDTSIGYINQIRRRANLNDYSGPITKEGVFEDLVHQRAIEFFVEGERFYDLRRWGLLEQTLKTCDDTRYKNYQTGKSDNINKFNYFPIPAKELDTNPLCTPSEGW,glycan array binding signal (z-score),[32],-0.671
same,glycan array binding signal (z-score),[15],-0.121
same,glycan array binding signal (z-score),[25],-0.33
same,glycan array binding signal (z-score),[5],-0.955
